The list shows a part of the results. Most entries show no effect beyond the scatter of the controls.

Chains of the proteins cited; added tags and fusions are not shown. Lines headed by an entry give the natural chain unless they say otherwise; changes in a name come on top.
UniProt C9JTQ0: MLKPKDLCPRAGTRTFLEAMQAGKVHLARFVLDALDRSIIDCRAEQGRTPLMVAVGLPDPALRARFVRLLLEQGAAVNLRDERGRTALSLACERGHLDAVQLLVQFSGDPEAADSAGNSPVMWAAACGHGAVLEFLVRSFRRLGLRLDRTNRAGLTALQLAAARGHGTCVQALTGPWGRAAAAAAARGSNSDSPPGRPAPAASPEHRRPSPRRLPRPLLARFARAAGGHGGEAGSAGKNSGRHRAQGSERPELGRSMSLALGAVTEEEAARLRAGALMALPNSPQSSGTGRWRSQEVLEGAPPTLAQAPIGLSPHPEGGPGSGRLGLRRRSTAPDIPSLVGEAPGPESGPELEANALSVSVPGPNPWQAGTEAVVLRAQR
UniProt A8MWY0: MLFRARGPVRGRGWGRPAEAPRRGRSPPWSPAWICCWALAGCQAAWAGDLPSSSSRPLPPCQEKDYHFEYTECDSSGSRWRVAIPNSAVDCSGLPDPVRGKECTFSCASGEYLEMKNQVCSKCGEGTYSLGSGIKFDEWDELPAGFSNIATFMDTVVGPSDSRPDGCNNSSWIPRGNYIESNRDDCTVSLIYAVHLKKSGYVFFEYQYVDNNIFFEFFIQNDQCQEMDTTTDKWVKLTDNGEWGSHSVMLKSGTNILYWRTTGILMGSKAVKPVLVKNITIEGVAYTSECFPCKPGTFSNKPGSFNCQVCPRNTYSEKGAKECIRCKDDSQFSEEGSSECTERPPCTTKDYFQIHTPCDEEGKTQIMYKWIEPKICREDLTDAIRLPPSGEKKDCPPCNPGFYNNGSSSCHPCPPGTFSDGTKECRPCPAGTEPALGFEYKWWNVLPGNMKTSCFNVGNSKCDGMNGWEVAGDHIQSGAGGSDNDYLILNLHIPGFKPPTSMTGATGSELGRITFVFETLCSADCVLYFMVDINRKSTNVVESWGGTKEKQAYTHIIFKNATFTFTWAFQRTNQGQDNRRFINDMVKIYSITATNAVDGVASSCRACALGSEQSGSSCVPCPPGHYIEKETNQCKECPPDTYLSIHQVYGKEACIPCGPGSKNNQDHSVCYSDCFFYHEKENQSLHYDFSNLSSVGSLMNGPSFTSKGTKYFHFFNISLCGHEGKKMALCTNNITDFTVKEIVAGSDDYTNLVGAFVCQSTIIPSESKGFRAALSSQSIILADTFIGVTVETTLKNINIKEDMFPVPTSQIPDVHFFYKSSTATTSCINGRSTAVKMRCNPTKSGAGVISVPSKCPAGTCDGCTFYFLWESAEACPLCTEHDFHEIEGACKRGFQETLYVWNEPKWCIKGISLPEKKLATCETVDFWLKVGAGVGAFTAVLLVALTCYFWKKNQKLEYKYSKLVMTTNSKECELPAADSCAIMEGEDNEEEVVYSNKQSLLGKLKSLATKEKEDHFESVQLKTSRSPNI
UniProt O15040: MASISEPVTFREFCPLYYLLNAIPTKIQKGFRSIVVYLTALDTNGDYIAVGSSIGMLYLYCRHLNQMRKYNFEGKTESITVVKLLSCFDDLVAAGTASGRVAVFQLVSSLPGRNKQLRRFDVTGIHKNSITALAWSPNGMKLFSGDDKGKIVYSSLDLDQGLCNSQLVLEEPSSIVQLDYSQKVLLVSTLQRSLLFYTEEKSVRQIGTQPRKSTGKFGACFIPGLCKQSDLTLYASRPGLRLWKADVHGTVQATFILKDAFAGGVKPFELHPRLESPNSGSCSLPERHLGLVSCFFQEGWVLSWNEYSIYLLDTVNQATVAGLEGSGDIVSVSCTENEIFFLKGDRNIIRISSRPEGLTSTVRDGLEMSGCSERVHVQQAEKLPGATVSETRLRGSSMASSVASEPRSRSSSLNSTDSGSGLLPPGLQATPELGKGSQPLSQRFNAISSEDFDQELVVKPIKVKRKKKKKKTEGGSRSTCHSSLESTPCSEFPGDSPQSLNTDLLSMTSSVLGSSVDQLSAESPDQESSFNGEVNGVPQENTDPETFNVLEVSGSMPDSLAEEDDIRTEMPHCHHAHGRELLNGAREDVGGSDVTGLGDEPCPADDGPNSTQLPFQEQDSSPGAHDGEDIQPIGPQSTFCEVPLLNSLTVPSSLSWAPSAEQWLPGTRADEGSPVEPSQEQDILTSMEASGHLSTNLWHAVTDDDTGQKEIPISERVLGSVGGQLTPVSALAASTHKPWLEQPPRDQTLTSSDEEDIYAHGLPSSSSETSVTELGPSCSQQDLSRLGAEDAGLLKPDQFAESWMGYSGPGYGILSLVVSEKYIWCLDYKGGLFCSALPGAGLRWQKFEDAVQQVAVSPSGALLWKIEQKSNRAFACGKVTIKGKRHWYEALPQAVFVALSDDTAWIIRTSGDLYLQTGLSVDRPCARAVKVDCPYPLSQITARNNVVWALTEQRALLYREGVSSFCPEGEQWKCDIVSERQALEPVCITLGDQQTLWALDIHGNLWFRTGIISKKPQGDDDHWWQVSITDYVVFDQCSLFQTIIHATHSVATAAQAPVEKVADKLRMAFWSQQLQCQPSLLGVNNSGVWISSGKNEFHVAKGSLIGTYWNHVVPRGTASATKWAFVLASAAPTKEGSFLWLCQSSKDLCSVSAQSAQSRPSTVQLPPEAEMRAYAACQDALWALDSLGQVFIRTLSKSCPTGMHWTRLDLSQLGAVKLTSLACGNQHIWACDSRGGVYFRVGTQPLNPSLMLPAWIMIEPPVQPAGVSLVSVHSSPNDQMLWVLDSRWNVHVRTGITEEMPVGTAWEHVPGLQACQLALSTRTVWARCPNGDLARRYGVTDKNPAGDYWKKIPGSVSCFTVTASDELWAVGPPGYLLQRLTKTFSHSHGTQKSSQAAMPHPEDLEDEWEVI
UniProt O00442: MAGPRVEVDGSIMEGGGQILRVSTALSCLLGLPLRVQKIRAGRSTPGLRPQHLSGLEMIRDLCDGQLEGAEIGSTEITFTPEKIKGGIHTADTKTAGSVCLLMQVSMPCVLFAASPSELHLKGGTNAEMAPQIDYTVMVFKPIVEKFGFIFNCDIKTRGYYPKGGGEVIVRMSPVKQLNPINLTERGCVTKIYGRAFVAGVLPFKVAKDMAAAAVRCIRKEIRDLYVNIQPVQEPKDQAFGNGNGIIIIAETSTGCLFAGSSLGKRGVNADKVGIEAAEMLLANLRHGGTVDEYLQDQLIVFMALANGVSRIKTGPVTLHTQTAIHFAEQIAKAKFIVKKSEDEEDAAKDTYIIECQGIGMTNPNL
UniProt O00221: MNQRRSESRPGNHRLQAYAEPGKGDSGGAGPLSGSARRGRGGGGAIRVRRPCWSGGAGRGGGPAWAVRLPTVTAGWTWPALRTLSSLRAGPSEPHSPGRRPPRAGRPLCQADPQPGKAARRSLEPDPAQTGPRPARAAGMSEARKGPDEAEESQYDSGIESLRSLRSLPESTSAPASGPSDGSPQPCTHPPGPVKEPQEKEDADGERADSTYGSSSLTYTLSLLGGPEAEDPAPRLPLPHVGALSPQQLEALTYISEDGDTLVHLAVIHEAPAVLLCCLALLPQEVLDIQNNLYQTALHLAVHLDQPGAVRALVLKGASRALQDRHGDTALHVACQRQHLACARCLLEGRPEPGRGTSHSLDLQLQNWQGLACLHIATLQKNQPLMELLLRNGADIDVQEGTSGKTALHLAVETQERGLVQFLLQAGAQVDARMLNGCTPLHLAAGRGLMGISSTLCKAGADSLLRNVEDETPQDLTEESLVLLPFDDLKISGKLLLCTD
UniProt O15315: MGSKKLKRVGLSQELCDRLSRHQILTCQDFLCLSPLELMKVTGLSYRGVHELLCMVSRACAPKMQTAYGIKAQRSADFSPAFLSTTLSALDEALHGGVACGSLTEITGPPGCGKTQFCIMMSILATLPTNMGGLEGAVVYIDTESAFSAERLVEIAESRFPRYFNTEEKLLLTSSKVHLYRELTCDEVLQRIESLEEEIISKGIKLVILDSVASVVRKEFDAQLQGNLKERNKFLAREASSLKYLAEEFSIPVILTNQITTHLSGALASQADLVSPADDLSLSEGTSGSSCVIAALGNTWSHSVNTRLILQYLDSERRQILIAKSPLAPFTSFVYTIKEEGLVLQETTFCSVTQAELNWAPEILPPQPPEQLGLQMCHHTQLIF
UniProt O15020, whole entry: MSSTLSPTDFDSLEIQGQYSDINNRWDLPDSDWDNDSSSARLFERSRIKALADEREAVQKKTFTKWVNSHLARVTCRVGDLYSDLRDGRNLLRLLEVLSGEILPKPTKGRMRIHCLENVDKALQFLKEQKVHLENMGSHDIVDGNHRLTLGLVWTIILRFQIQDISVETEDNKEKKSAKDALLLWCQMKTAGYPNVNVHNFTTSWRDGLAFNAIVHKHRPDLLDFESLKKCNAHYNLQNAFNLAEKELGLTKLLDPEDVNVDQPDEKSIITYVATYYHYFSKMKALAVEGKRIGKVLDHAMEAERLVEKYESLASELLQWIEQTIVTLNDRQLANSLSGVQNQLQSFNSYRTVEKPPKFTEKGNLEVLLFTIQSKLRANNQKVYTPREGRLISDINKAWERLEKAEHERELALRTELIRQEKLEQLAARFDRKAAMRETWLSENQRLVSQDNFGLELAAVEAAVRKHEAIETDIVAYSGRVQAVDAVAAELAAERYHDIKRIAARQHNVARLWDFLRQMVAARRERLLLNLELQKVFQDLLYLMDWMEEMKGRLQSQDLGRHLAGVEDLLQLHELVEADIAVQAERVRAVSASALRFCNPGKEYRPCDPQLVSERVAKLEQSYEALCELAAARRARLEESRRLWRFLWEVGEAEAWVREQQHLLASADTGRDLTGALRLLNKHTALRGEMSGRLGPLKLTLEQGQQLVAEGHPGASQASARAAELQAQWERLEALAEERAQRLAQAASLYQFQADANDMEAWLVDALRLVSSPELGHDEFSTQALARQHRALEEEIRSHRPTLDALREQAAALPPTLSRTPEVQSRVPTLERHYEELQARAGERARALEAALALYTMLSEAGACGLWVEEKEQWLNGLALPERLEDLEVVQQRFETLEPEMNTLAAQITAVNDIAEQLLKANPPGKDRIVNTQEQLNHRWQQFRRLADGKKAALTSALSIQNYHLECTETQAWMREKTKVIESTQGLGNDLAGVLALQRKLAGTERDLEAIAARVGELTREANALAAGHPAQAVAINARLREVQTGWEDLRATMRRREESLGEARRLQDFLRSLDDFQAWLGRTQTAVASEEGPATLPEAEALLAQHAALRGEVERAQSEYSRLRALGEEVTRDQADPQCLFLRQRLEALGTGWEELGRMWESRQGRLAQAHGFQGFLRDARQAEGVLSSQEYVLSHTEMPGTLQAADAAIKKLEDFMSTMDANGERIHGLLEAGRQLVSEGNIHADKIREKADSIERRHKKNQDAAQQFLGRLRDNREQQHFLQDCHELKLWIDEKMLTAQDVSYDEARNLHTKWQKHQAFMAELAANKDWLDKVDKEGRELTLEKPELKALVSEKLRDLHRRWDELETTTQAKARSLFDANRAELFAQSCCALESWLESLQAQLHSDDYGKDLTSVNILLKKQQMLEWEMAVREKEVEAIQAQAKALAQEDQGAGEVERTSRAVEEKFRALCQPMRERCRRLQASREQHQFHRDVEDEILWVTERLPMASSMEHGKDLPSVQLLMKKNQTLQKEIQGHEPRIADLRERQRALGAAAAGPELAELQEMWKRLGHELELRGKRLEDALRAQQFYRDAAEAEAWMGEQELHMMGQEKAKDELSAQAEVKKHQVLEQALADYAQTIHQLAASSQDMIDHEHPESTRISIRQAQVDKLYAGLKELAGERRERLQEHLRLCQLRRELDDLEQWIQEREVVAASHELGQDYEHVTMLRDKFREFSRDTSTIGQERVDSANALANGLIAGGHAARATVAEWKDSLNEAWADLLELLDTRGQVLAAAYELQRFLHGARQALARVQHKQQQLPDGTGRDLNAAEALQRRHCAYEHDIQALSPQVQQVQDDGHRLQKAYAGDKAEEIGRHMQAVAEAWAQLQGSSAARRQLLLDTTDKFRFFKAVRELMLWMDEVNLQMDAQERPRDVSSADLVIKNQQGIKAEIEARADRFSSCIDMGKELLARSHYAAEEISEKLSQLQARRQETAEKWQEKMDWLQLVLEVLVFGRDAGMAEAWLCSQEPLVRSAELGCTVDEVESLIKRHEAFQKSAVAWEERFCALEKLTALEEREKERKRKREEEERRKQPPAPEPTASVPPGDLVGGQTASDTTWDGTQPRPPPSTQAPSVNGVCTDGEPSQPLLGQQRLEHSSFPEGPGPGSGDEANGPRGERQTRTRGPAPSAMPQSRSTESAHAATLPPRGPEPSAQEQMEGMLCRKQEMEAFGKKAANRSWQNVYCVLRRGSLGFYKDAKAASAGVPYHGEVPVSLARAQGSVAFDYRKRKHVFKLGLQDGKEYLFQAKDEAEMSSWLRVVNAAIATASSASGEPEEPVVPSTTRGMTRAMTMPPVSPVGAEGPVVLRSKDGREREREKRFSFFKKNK

Compound in this assay: CN[C@@H]1C[C@H]2O[C@@](C)([C@@H]1OC)n1c3ccccc3c3c4c(c5c6ccccc6n2c5c31)C(=O)NC4 [staurosporine]
As to the kind of experiment: log2 fold change of tryptic peptide abundance, ligand vs vehicle (limited proteolysis) (log2 ratio); higher = more trypsin-susceptible (destabilized). To be noted: ligand concentration: 20 uM; sample: K562 cleared lysate; digestion: 4 min, 22 C (HT-PELSA RT4min, Orbitrap Astral).
“UniProt C9JTQ0 (peptide sequence: AGLTALQLAAAR, peptide start residue: 153)”: the log2 fold change came out at 0.364.

On to “KIAA1324L (peptide sequence: KNQKLEYK, peptide start residue: 952) (UniProt A8MWY0)”, for which the log2 fold change was -0.424.

As for “UniProt O15040 (peptide sequence: VHVQQAEKLPGATVSETR, peptide start residue: 375)”, the log2 fold change was -0.503.

In the case of “UniProt O00442 (peptide sequence: GGIHTADTK, peptide start residue: 86)”, the log2 fold change was found to be 0.355.

On to “ARPC3 (peptide sequence: ETKDTDIVDEAIYYFK, peptide start residue: 35) (UniProt O15145)”, for which the log2 fold change was found to be 0.194.

On to “NFKBIE (peptide sequence: HGDTALHVACQR, peptide start residue: 326) (UniProt O00221)”, for which the log2 fold change was determined as 0.14.

Take “UniProt C9JN71 (peptide sequence: AFFSPSSLKR, peptide start residue: 235)”: the log2 fold change was -0.0702.

Take “PIK3R2 (peptide sequence: IFEEQGQTQEK, peptide start residue: 490) (UniProt O00459)”: the log2 fold change is -0.429.

“UniProt O15315 (peptide sequence: LILQYLDSERR, peptide start residue: 308)”: the log2 fold change was -0.172.

With “CCDC85C (peptide sequence: RLQQHLLEIR, peptide start residue: 59) (UniProt A6NKD9)”, the log2 fold change was -0.538.

Consider “SPTBN2 (peptide sequence: GPAPSAMPQSR, peptide start residue: 2188) (UniProt O15020)”, for which the log2 fold change amounted to 0.317.

For the origin of these results see the supplement of paper PMC12819154, “High-throughput peptide-centric local stability assay extends protein–ligand identification to membrane proteins, tissues and bacteria” (Nature Structural & Molecular Biology, 2025).
